Measured values taken from patent publication US10231463B2, “Food mass suitable for microwaving” (Chemische Fabrik Budenheim KG, priority 2013, dated 2019).

Columns and labels:
[1] = Thawing and baking trials with puff pastry in a microwave oven; details: 2 parts by weight additive, 30 minutes standing time, thermal imaging camera; for M1 (averaged crust temperature outside): deep-frozen puff pastry dough pieces (PPD-RO 440 watts, 200 seconds or PPD-HP 600 watts, 300 seconds; table does not say which); for M2 (averaged crumb temperature in the interior of the dough piece): deep-frozen puff pastry dough pieces (PPD-RO or PPD-HP not stated)
Description: A puff pastry from Veripan was used as the basic recipe.
2 parts by weight of microwave absorber were further added to the basic recipe.
Wheat flour, inverted sugar, emulsifier and optionally microwave absorber were put into a mixing container and mixed. The water and 20% of the vegetable fat were added and kneaded for 3 minutes at a low stage and for 5 minutes at a medium stage with a spiral kneader. The dough temperature was monitored. The target temperature was 18° C. After that the remaining vegetable fat was beaten into the dough. The dough was then folded at intervals each of 30 minutes in 4 working steps, more specifically 2 single and 2 double turns. They give by calculation 144 fat layers (margarine), divided into very thin dough and fat layers. Before processing the dough was stored in a cooled condition for 12 hours.
Unbaked puff pastry dough roundels without filling and pre-baked puff pastry dough pockets (hot pockets) with a tomato sauce filling were respectively subjected to microwave radiation as deep-frozen dough pieces in a microwave oven from Panasonic (see Example 2) for a predetermined period and with a predetermined microwave power. After a […] standing time the temperature of the dough piece was measured by means of a thermal imaging camera (Fluke Ti20) and evaluated.
Measurement value 1 (M1)=averaged crust temperature outside
Measurement value 2 (M2)=averaged crumb temperature in the interior of the dough piece.
Puff pastry dough roundel (PPD-RO): 440 watts; 200 seconds
Puff pastry dough hot pockets (PPD-HP): 600 watts; 300 seconds
Table 3 hereinafter reproduces the additives used, the temperature measurement values M1 and M2 and the corresponding temperature difference (ΔT) between crust temperature and crumb temperature of the dough piece.
Assessment of Microwave Activity in Puff Pastry Doughs 1: ΔT=>20° C.=very good 2: ΔT=15 to <20° C.=good 3: ΔT=<15° C.=no additional additive

[2] = Thawing and baking trials with yeast-raised wheat frozen doughs in a microwave oven; details: 2 parts by weight additive; deep-frozen 200 g dough piece; 600 watts, 120 seconds; 2 minutes standing time; infrared sensor
Description: Dough Composition (Basic Recipe):
In addition 2 parts by weight of microwave absorber were added to the basic recipe.
• Mixing and kneading time: 3+2 minutes (the latter in a Stephan mixer) • Dough standing time: 20 minutes • Dough piece weight: 200 g • Cooking time of the dough pieces: 20 minutes • Freezing time: about 4 hours • Deep freeze storage time: about 2 days Thawing and Baking Trials:
The deep-frozen dough pieces were exposed to microwave radiation in a microwave oven from Panasonic (model: NN-GD560M—inverter microwave) for a predetermined period of 120 seconds and with a predetermined microwave power of 600 watts (according to the device indication). After 2 minutes of standing time the temperature of the crust and the crumb was measured by means of an infrared temperature sensor at various measurement points on the dough piece.
Measurement value 1 (M1)=average crust temperature outside
Measurement value 2 (M2)=average crumb temperature in the interior of the dough piece.

Molecule	M1 (averaged crust temperature outside) [1]	M2 (averaged crumb temperature in the interior of the dough piece) [1]	M1 (average crust temperature outside) [2]	M2 (average crumb temperature in the interior of the dough piece) [2]
O=P([O-])(O)OP(=O)([O-])O.[Ca+2] [CAPP, Acid calcium pyrophosphate]	102.0 °C	75.5 °C		
O=P([O-])([O-])[O-].[Fe+3] [FeOP, Iron-III-orthophosphate]	93.3 °C	78.7 °C		
O=P([O-])([O-])OP(=O)([O-])[O-].O=P([O-])([O-])OP(=O)([O-])[O-].O=P([O-])([O-])OP(=O)([O-])[O-].[Fe+3].[Fe+3].[Fe+3].[Fe+3] [FePP, Iron-III-pyrophosphate]	110.0 °C	92.6 °C		
O=P([O-])([O-])OP(=O)([O-])[O-].[Mg+2].[Mg+2] [MgPP, Magnesium pyrophosphate]	92.9 °C	77.7 °C		
Calcium gluconate [CaGl]			77.1 °C	40.5 °C
